Data as given in publication doi:10.1101/2021.09.29.461190.
No constants are given. Whether binding was seen depends on the method and setting. Binding seen in cells or lysates may run through a third protein. Some entries that bind do so weakly or less than the wild type. Where a sequence is shown, tags or fusion partners need not be part of it.

What was measured:
[1] = target: T1, NET4A-GFP (Arabidopsis thaliana) (UniProt F4KEW8); test: co-IP
T1 sequence: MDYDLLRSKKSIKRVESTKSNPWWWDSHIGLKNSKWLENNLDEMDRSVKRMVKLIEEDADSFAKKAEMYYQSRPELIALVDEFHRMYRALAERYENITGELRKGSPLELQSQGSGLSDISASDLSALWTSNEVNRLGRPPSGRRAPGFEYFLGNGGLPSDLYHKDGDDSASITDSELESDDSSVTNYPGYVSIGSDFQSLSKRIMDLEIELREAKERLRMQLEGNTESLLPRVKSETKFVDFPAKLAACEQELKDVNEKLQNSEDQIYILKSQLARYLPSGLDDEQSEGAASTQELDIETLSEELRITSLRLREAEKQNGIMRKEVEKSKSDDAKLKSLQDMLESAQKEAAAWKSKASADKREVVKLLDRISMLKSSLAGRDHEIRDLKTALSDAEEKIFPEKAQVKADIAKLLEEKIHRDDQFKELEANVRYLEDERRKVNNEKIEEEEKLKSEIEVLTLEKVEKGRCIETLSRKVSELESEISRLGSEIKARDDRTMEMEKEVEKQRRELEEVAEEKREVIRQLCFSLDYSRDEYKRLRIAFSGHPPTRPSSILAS

[2] = target: T1, NET4A-GFP (Arabidopsis thaliana); test: FRET or BRET

binding [1]: binds
binding [2]: binds
B1: NET4B-RFP (protein, UniProt Q84VY2 1-517)
chain: MASSTAQSKKQFKRSMTKKSHSWWWDSHNCPKNSKWLAENLEKMDDRVNHMLKLIEEDADSFAKKAQMYFQKRPELIQLVEEFYRMYRALAERYDQASGELQKNHTSEIQSQSSLEISSPTKEKLSRRQSSHKEEEDSSSLTDSGSDSDHSSANDEDGDEALIRRMAELELELQETKQKLLLQQESVDGDNNVDLLHKITTYEGELKEANEKMRMHEDEIANLKNQLQSFMSFDTEDHLGAEQKSVDLDKEDTKEDAVATKVLALEEELSIAKEKLQHFEKETYSLKNELEIGKAAEEKLKSLQHELELAQRDADTYINKLNAEKKEVLKLQERLAMVKTSLQDRDNEIRALKTAVSDAEQKIFPEKAQIKGEMSKMLEERSQLGEQLRELESHIRLIKEEKAETEEKLRGGTEKISGMRDESNVLREEIGKREEKIKETEKHMEELHMEQVRLRRRSSELTEEVERTRVSASEMAEQKREAIRQLCMSLDHYRDGYDRLWRVVAGHKSKRVVVLST
